The nature of the first data set: general procedure: solution-phase peptide synthesis; EDC/HOBt; PyBOP. The conditions noted are these: coupling step, hydrochloride.
For the substance “Benzyl ((1S)-4-{[(2S)-5-{[(benzyloxy)carbonyl]amino}-2-({[(8S,11S,14S)-14-[(tert-butoxycarbonyl)amino]-11-{3-[(tert-butoxycarbonyl)amino]propyl}-17-hydroxy-9-methyl-10,13-dioxo-9,12-diazatricyclo[14.3.1.1^2,6]henicosa-1(20),2(21),3,5,16,18-hexaen-8-yl]carbonyl}amino)pentanoyl]amino}-1-{2-[(2-{[(benzyloxy)carbonyl]amino}ethyl)amino]-2-oxoethyl}butyl)carbamate”, the step yield is recorded as 25% of theory.

Regarding “Benzyl [(1S)-4-{[(benzyloxy)carbonyl]amino}-1-({[3-({[(8S,11S,14S)-14-[(tert-butoxycarbonyl)amino]-11-{(2R)-3-[(tert-butoxycarbonyl)amino]-2-hydroxypropyl}-17-hydroxy-9-methyl-10,13-dioxo-9,12-diazatricyclo[14.3.1.1^2,6]henicosa-1(20),2(21),3,5,16,18-hexaen-8-yl]carbonyl}amino)-2-hydroxypropyl]amino}carbonyl)butyl]carbamate”, the step yield is 30% of theory.

The same data set, now with this note: late stage modification step, hexahydrochloride.
With “(8S,11S,14S)-14-Amino-N-((1S)-4-amino-1-{[((4S)-4-amino-6-{[(25)-2,5-diaminopentyl]amino}-6-oxohexyl)amino]carbonyl}butyl)-11-[(2R)-3-amino-2-hydroxypropyl]-17-hydroxy-10,13-dioxo-9,12-diazatricyclo[14.3.1.1^2,6]henicosa-1(20),2(21),3,5,16,18-hexaene-8-carboxamide hexahydrochloride”, the step yield was 78% of theory.

Regarding “(8S,11S,14S)-14-Amino-N-[(1S)-4-amino-1-({[(1S)-4-amino-1-(2-{[(2S)-2,5-diaminopentyl]-amino}-2-oxoethyl)butyl]amino}carbonyl)butyl]-11-[(2R)-3-amino-2-hydroxypropyl]-17-hydroxy-10,13-dioxo-9,12-diazatricyclo[14.3.1.1^2,6]henicosa-1(20),2(21),3,5,16,18-hexaene-8-carboxamide hexahydrochloride”, the step yield is 99% of theory.

“(8S,11S,14S)-14-Amino-N-((1S)-4-amino-1-{[((4S)-4-amino-6-{[(2S)-2,5-diaminopentyl]-amino}-6-oxohexyl)amino]carbonyl}butyl)-11-(3-aminopropyl)-17-hydroxy-10,13-dioxo-9,12-diazatricyclo[14.3.1.1^2,6]henicosa-1 (20),2(21),3,5,16,18-hexaene-8-carboxamide hexahydrochloride”: the step yield is recorded as 78% of theory.

As to “(8S,11S,14S)-14-Amino-N-[(1S)-4-amino-1-({[(1S)-4-amino-1-(2-{[(2S)-2,5-diaminopentyl]-amino}-2-oxoethyl)butyl]amino}carbonyl)butyl]-11-(3-aminopropyl)-17-hydroxy-10,13-dioxo-9,12-diazatricyclo[14.3.1.1^2,6]henicosa-1(20),2(21),3,5,16,18-hexaene-8-carboxamide hexahydrochloride”, the step yield was 99% of theory.

The data set is the same for the next values; noted with them: late stage modification step, hydrochloride.
Take “(8S,11S,14S)-14-Amino-N-[(1S)-4-amino-1-(2-{[(2S)-2,5-diaminopentyl]amino}-2-oxoethyl)butyl]-11-[(2R)-3-amino-2-hydroxypropyl]-17-hydroxy-9-methyl-10,13-dioxo-9,12-diazatricyclo[14.3.1.1^2,6]henicosa-1(20),2(21),3,5,16,18-hexaene-8-carboxamide pentahydrochloride”: the step yield is 95% of theory.

In the case of “(8S,11S,14S)-14-Amino-N-(1-(2-aminoethyl)-3-{[(2S)-2,5-diaminopentyl]amino}-3-oxopropyl)-11-(3-aminopropyl)-17-hydroxy-10,13-dioxo-9,12-diazatricyclo[14.3.1.1^2,6]henicosa-1(20),2(21),3,5,16,18-hexaene-8-carboxamide penta(hydrotrifluoroacetate)”, the step yield is on record as 57% of theory.

Still in this data set, the particulars now being: late stage modification step, pentahydrochloride.
Consider “(8S,11S,145)-14-Amino-N-{(1S)-4-amino-1-[({(4S)-4-amino-6-[(2-aminoethyl)amino]-6-oxohexyl}amino)carbonyl]butyl}-11-[(2R)-3-amino-2-hydroxypropyl]-17-hydroxy-10,13-dioxo-9,12-diazatricyclo[14.3.1.1^2,6]henicosa-1(20),2(21),3,5,16,18-hexaene-8-carboxamide pentahydrochloride”, for which the step yield is given as 99% of theory.

“(8S,11S,14S)-14-Amino-N-[(s)-4-amino-1-({[(25)-2,5-diaminopentyl]amino}carbonyl)butyl]-11-(3-aminopropyl)-17-hydroxy-10,13-dioxo-9,12-diazatricyclo[14.3.1.1^2,6]henicosa-1(20),2(21),3,5,16,18-hexaene-8-carboxamide pentahydrochloride”: the step yield is on record as 93% of theory.

In the case of “(8S,11S,14S)-14-Amino-N-((1S)-4-amino-1-{[((1S)-4-amino-1-{2-[(2-aminoethyl)amino]-2-oxoethyl}butyl)amino]carbonyl}butyl)-11-[(2R)-3-amino-2-hydroxypropyl]-17-hydroxy-10,13-dioxo-9,12-diazatricyclo[14.3.1.1^26]henicosa-1(20),2(21),3,5,16,18-hexaene-8-carboxamide pentahydrochloride”, the step yield is on record as 99% of theory.

With “(8S,15S,14S)-14-Amino-N-((1S)-1-(aminomethyl)-2-{[(2S)-2,5-diaminopentyl]amino}-2-oxoethyl)-11-(3-aminopropyl)-17-hydroxy-10,13-dioxo-9,12-diazatricyclo[14.3.1.1^2,6]henicosa-1 (20),2(21),3,5,16,18-hexaene-8-carboxamide pentahydrochloride”, the step yield was 99% of theory.

In the case of “(8S,11S,14S)-14-Amino-N-{(1S)-4-amino-1-[({(4S)-4-amino-6-[(2-aminoethyl)amino]-6-oxohexyl}amino)carbonyl]butyl}-11-(3-aminopropyl)-17-hydroxy-10,13-dioxo-9,12-diazatricyclo[14.3.1.1^2,6]henicosa-1(20),2(21),3,5,16,18-hexaene-8-carboxamide pentahydrochloride”, the step yield was 99% of theory.

As for “N^5—(N^2-{[(8S,11S,14S)-14-Amino-1-(3-aminopropyl)-17-hydroxy-10,13-dioxo-9,12-diazatricyclo[14.3.1.1^2,6]henicosa-1(20),2(21),3,5,16,18-hexaen-8-yl]carbonyl}-L-ornithyl)-N-(2-aminoethyl)-L-ornithinamide pentahydrochloride”, the step yield was 99% of theory.

As for “(8S,11S,14S)-14-Amino-N-((1S)-4-amino-1-{[((1S)-4-amino-1-{2-[(2-aminoethyl)amino]-2-oxoethyl}butyl)amino]carbonyl}butyl)-11-(3-aminopropyl)-17-hydroxy-10,13-dioxo-9,12-diazatricyclo[14.3.1.1^2,6]henicosa-1(20),2(21),3,5,16,18-hexaene-8-carboxamide pentahydrochloride”, the step yield is 99% of theory.

Staying with this data set, now noted: late stage modification step, tetrahydrochloride.
“(8S,11S,14S)-14-Amino-N-[(1S)-4-amino-1-({[(5S)-5-amino-6-hydroxyhexyl]amino}carbonyl)butyl]-11-(3-aminopropyl)-17-hydroxy-10,13-dioxo-9,12-diazatricyclo[14.3.1.1^2,6]henicosa-1 (20),2(21),3,5,16,18-hexaene-8-carboxamide tetrahydrochloride”: the step yield was 97% of theory.

For “(8S,11S,14S)-14-Amino-N-{(4S)-4-amino-5-[(2-aminoethyl)amino]-5-oxopentyl}-11-[(2R)-3-amino-2-hydroxypropyl]-17-hydroxy-10,13-dioxo-9,12-diazatricyclo[14.3.1.1^2,6]-henicosa-1(20),2(21),3,5,16,18-hexaene-8-carboxamide tetrahydrochloride”, the step yield is listed as 99% of theory.

For the substance “(8S,11S,14S)-14-Amino-N-((1S)-4-amino-1-{[(2-aminoethyl)amino]carbonyl}butyl)-11-(3-aminopropyl)-17-hydroxy-10,13-dioxo-9,12-diazatricyclo[14.3.1.1^2,6]henicosa-1 (20),2(21),3,5,16,18-hexaene-8-carboxamide tetrahydrochloride”, the step yield is 99% of theory.

For the substance “(8S,11S,14S)-14-Amino-11-[(2R)-3-amino-2-hydroxypropyl]-N-(2-{[(2S)-2,5-diaminopentyl]-amino}-2-oxoethyl)-17-hydroxy-10,13-dioxo-9,12-diazatricyclo[14.3.1.1^2,6]henicosa-1(20),2(21),3,5,16,18-hexaene-8-carboxamide tetrahydrochloride”, the step yield is 64% of theory.
